Measured values as given in US20050026827A1 (Societe de Conseils de Recherches et d'Applications …, priority 1987, published 2005).
For some of these results: HELM strings list residues between dots; [ac] is acetyl, [am] amide, other brackets name non-standard units.

Legend:
[1] = general procedure: Boc solid-phase peptide synthesis; Benzhydrylamine-polystyrene resin; methylbenzhydrylamine-polystyrene resin; Boc-Leu-O-Merrifield resin; diisopropylcarbodiimide; preformed HOBt esters; details: whole synthesis, scale of the general procedure 0.25-0.73 mmol, GRF analogues 0.25 mmol; for final HPLC purity: 215 nm
[2] = general procedure: Boc solid-phase peptide synthesis; methylbenzhydrylamine-polystyrene; diisopropylcarbodiimide; preformed HOBt esters; details: whole synthesis, scale 0.73 mmol
[3] = general procedure: Boc solid-phase peptide synthesis; benzhydrylamine-polystyrene; diisopropylcarbodiimide; preformed HOBt esters; details: whole synthesis, scale 0.5 mmole
[4] = general procedure: Boc solid-phase peptide synthesis; Boc-Leu-O-Merrifield resin; diisopropylcarbodiimide; preformed HOBt esters; details: whole synthesis, scale 0.5 mmole
[5] = general procedure: Boc solid-phase peptide synthesis; methylbenzhydrylamine resin; diisopropylcarbodiimide; preformed HOBt esters; details: whole synthesis, scale 0.25 mmole

[Asn^8ψ[CH2NH]-Ser^9]GRF(1-29)NH2
outcome [1]: could not be synthesised

pGlu-Gln-Trp-Ala-Val-Gly-His-Sta-NH2
isolated mass [2]: 77 mg

GRF(1-29)NH2
final HPLC purity [1]: 99.4%

pGlu-Gln-Trp-Ala-Val-Gly-His-Leuψ[CH2NH]Leu-NH2
isolated mass [3]: 60 mg

PEPTIDE1{[dF].Q.W.A.V.[N-Me-D-Ala].H.L.[OMe]}$$$$V2.0
isolated mass [4]: 49 mg

Tyr-Ala-Asp-Ala-Ile-Phe-Thr-Asn-Serψ[CH2NH]Tyr-Arg-Lys-Val-Leu-Gly-Gln-Leu-Ser-Ala-Arg-Lys-Leu-Leu-Gln-Asp-Ile-Met-Ser-Arg-NH2
isolated mass [5]: 8.0 mg | final HPLC purity [1]: 92.6%
